# The supplement of paper PMC9135407
# Where “and” joins values, the source holds several entries; their conditions need not be identical. Equal entries are not always repeated. Structures can show the parent of a compound that is named as a salt. ± gives the standard deviation of the averaged measurements. The list shows a part of the results. Baselines shift from plate to plate; read single values as rough.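 Primary human stellate myofibroblasts activated in culture; inactivation shown by regained lipid droplets. Readout: fraction of Hoechst-counted cells exceeding a per-plate Bodipy threshold, duplicate wells, each plate with DMSO negative and nortriptyline positive controls. Hits: control-normalized score beyond the plate's top-tenth-percentile nortriptyline wells, or among its three best wells. Final well concentrations unstated.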
# Tested on: primary human hepatic stellate cells (donor 1)
# Assay: percent Bodipy-positive cells; higher = more lipid droplet accumulation
# Details: 48 h
# [1] = library stock concentration: 10 mM
# [2] = library stock concentration: 1 mM
# [3] = library stock concentration: 3.33 mM
# [4] = library stock concentration: 80 uM
# [5] = library stock concentration: 400 uM
# [6] = library stock concentration: 2 mM
smiles,measurement,setting,value
CN1C(=O)OC(C)(C)C1=O [Trimethadione],percent Bodipy-positive cells,,27.1 ± 10%
same,percent Bodipy-positive cells,library stock concentration: 14 mM,13.9 ± 3.3%
CC(=O)CCCCn1c(=O)c2c(ncn2C)n(C)c1=O [Pentoxifylline],percent Bodipy-positive cells,,34.9 ± 16%
same,percent Bodipy-positive cells,library stock concentration: 7.2 mM,6.26% and 16.4%
same,percent Bodipy-positive cells,[1],19.8% and 37.7% and 40.3%
CN(C/C=C/c1ccccc1)Cc1cccc2ccccc12 [Naftifine hydrochloride],percent Bodipy-positive cells,,16.8 ± 0.75%
O=c1c(-c2ccc(O)cc2)coc2cc(O)ccc12 [Daidzein],percent Bodipy-positive cells,[2],18.4 ± 12%
same,percent Bodipy-positive cells,[3],8.76 ± 2%
CNCCCC12CCC(c3ccccc31)c1ccccc12.Cl [Maprotiline HCl],percent Bodipy-positive cells,[1],93.2 ± 2.8%
CC(C)NC[C@H](O)COc1cccc2ccccc12 [(S)-propranolol hydrochloride],percent Bodipy-positive cells,,34.6 ± 2.6%
CC(C)NC[C@H](O)COc1cccc2ccccc12 [(S)-(-)-Propranolol hydrochloride],percent Bodipy-positive cells,[1],45.3 ± 11%
CC(C)NC[C@H](O)COc1cccc2ccccc12 [(S)-Propranolol hydrochloride],percent Bodipy-positive cells,[1],63 ± 2.1%
CC1(C)CC[C@]2(C(=O)O)CC[C@]3(C)C(=CC[C@@H]4[C@@]5(C)CC[C@H](O)C(C)(C)[C@@H]5CC[C@]43C)[C@@H]2C1 [Oleanolic Acid],percent Bodipy-positive cells,[3],15.4 ± 5.8%
same,percent Bodipy-positive cells,[1],18 ± 4.8%
O=C(O)CCCCC(CCSCc1ccccc1)SCc1ccccc1 (centres undefined),percent Bodipy-positive cells,[3],4.88 ± 1.8%
same,percent Bodipy-positive cells,[1],18.1 ± 5.3%
C[C@H]1O[C@@H](n2cc(F)c(=O)[nH]c2=O)[C@H](O)[C@@H]1O [5-fluoro-5'-deoxyuridine],percent Bodipy-positive cells,[1],33.4 ± 8.4%
C[C@H]1O[C@@H](n2cc(F)c(=O)[nH]c2=O)[C@H](O)[C@@H]1O [Doxifluridine],percent Bodipy-positive cells,[3],11.7 ± 3%
same,percent Bodipy-positive cells,library stock concentration: 8.1 mM,5.9 ± 0.37%
same,percent Bodipy-positive cells,[1],13.76 ± 0.1%
CC(=O)N(OCc1ccccc1)[C@H]1c2cc(C#N)ccc2OC(C)(C)[C@H]1O,percent Bodipy-positive cells,[1],7.62 ± 2.9%
CC(C)(C)c1nc(-c2cccc(NS(=O)(=O)c3c(F)cccc3F)c2F)c(-c2ccnc(N)n2)s1,percent Bodipy-positive cells,[3],10.3 ± 7.6%
same,percent Bodipy-positive cells,[1],11.7 ± 1.8%
CC(C)(C)c1nc(-c2cccc(NS(=O)(=O)c3c(F)cccc3F)c2F)c(-c2ccnc(N)n2)s1 [Dabrafenib],percent Bodipy-positive cells,[4],7.67 ± 2.3%
same,percent Bodipy-positive cells,[5],9.14 ± 5.8%
same,percent Bodipy-positive cells,[6],9.77 ± 3.4%
same,percent Bodipy-positive cells,[1],11.7 ± 1.5%
Clc1ccc(C(c2ccc(Cl)cc2)[n+]2ccn(CC(OCc3ccc(Cl)cc3Cl)c3ccc(Cl)cc3Cl)c2)cc1 (centres undefined) [Calmidazolium chloride],percent Bodipy-positive cells,[1],100%
Cc1c(C(=O)Nc2ccc(N3CCC(N4CCOCC4)CC3)c(C#N)c2)cnn1-c1ccc(Cl)cc1,percent Bodipy-positive cells,[3],100%
same,percent Bodipy-positive cells,[1],100%
OCC1OC(n2cnc3c(NC4CCCC4)nc(Cl)nc32)C(O)C1O (centres undefined) [2-Chloro-N6-cyclopentyladenosine],percent Bodipy-positive cells,[1],11%
N[C@@H](Cc1cc(CP(=O)(O)O)cc(-c2ccccc2Cl)c1)C(=O)O,percent Bodipy-positive cells,[1],6.76 ± 2.2%
CCCCC/C=C\C/C=C\CC/C=C\CCCC(=O)OCC [Pinolenic Acid ethyl ester],percent Bodipy-positive cells,[2],9.81 ± 3%
Nc1ccc(C(=O)O)cc1 [Potassium p-aminobenzoate],percent Bodipy-positive cells,[1],9.56 ± 2.2%
O=C(O)C1=CO[C@@H](O[C@@H]2O[C@H](CO)[C@@H](O)[C@H](O)[C@H]2O)[C@@H]2C(CO)=CC[C@H]12 [Geniposidic acid],percent Bodipy-positive cells,[3],5.81 ± 1.1%
same,percent Bodipy-positive cells,[1],10.3 ± 1.3%
CCN1CCCC(OC(=O)C(c2ccccc2)c2ccccc2)C1 (centres undefined) [Piperidolate hydrochloride],percent Bodipy-positive cells,,26.1 ± 4%
same,percent Bodipy-positive cells,[1],58.6 ± 8.7%
CC(C)c1ccc2c(c1)CC[C@H]1[C@](C)(CN)CCC[C@]21C [Lylamine hydrochloride],percent Bodipy-positive cells,[1],91.29 ± 0.54%
"CC(=O)NC(CC(=O)O)C(=O)O (racemic) [Aspartic acid, N-acetyl (R,S)]",percent Bodipy-positive cells,,17.2 ± 0.52%
COc1c(C)c2c(c(O)c1C/C=C(\C)CCC(=O)O)C(=O)OC2 [Mycophenolic acid],percent Bodipy-positive cells,,19 ± 8.5%
same,percent Bodipy-positive cells,[3],7.91 ± 2.7%
same,percent Bodipy-positive cells,library stock concentration: 6.2 mM,5.09% and 16.6%
same,percent Bodipy-positive cells,[1],17.4% and 20.4% and 4.96%
same,percent Bodipy-positive cells,library stock concentration: 15.6 mM,13.5 ± 3.3%
O=C(O)c1ccc(S(=O)(=O)N(Cl)Cl)cc1 [Halazone],percent Bodipy-positive cells,[1],13.2 ± 1.6%
O=C1OC(O)C(c2cc3ccccc3s2)=C1Br (centres undefined),percent Bodipy-positive cells,[2],15.6 ± 4.1%
O=C(Oc1ccccc1C(=O)O)c1ccccc1O [Salsalate],percent Bodipy-positive cells,library stock concentration: 7.7 mM,2.67 ± 0.4%
O=C(Oc1ccccc1C(=O)O)c1ccccc1O [Sasapyrine],percent Bodipy-positive cells,[3],7.83 ± 1.9%
same,percent Bodipy-positive cells,[1],28.4 ± 8.3%
CCCCCNC(=N)N/N=C/c1c[nH]c2ccc(OC)cc12,percent Bodipy-positive cells,[1],87.5 ± 4.1%
CCCCCNC(=N)N/N=C/c1c[nH]c2ccc(OC)cc12 [Tegaserod],percent Bodipy-positive cells,[1],38.4 ± 4.4%
CCCCCNC(=N)N/N=C/c1c[nH]c2ccc(OC)cc12 [Tegaserod maleate],percent Bodipy-positive cells,[1],35.6 ± 2.8%
CS(=O)(=O)c1ccc(-c2cnc(N)c(C(=O)Nc3ccccc3)n2)cc1,percent Bodipy-positive cells,[4],5.08 ± 0.77%
same,percent Bodipy-positive cells,[5],6.11 ± 3.1%
same,percent Bodipy-positive cells,[6],5.73 ± 1.2%
same,percent Bodipy-positive cells,[3],59.9 ± 14%
same,percent Bodipy-positive cells,[1],35.24 ± 0.32%
CCOC(=O)C1=C(N)Oc2ccc(Br)cc2[C@H]1[C@H](C#N)C(=O)OCC,percent Bodipy-positive cells,[1],100%

# In a second layout: entries from further up
smiles | measurement | setting | value
CC(=O)CCCCn1c(=O)c2c(ncn2C)n(C)c1=O [Pentoxifylline] | percent Bodipy-positive cells |  | 34.9 ± 16%
CC(C)NC[C@H](O)COc1cccc2ccccc12 [(S)-Propranolol hydrochloride] | percent Bodipy-positive cells | [1] | 63 ± 2.1%
O=C(O)CCCCC(CCSCc1ccccc1)SCc1ccccc1 (centres undefined) | percent Bodipy-positive cells | [1] | 18.1 ± 5.3%
CC(C)(C)c1nc(-c2cccc(NS(=O)(=O)c3c(F)cccc3F)c2F)c(-c2ccnc(N)n2)s1 [Dabrafenib] | percent Bodipy-positive cells | [1] | 11.7 ± 1.5%
Clc1ccc(C(c2ccc(Cl)cc2)[n+]2ccn(CC(OCc3ccc(Cl)cc3Cl)c3ccc(Cl)cc3Cl)c2)cc1 (centres undefined) [Calmidazolium chloride] | percent Bodipy-positive cells | [1] | 100%
OCC1OC(n2cnc3c(NC4CCCC4)nc(Cl)nc32)C(O)C1O (centres undefined) [2-Chloro-N6-cyclopentyladenosine] | percent Bodipy-positive cells | [1] | 11%
COc1c(C)c2c(c(O)c1C/C=C(\C)CCC(=O)O)C(=O)OC2 [Mycophenolic acid] | percent Bodipy-positive cells | library stock concentration: 6.2 mM | 5.09% and 16.6%
O=C1OC(O)C(c2cc3ccccc3s2)=C1Br (centres undefined) | percent Bodipy-positive cells | [2] | 15.6 ± 4.1%
O=C(Oc1ccccc1C(=O)O)c1ccccc1O [Sasapyrine] | percent Bodipy-positive cells | [3] | 7.83 ± 1.9%
same | percent Bodipy-positive cells | [1] | 28.4 ± 8.3%
CS(=O)(=O)c1ccc(-c2cnc(N)c(C(=O)Nc3ccccc3)n2)cc1 | percent Bodipy-positive cells | [6] | 5.73 ± 1.2%
CCOC(=O)C1=C(N)Oc2ccc(Br)cc2[C@H]1[C@H](C#N)C(=O)OCC | percent Bodipy-positive cells | [1] | 100%
